From the supplement of paper PMC10849652
The other results are listed elsewhere or left out.

Amino acid sequences for entries named in this document (tags omitted). A change or cut given only in a name is not applied to a line headed by its entry.
UniProt O75688: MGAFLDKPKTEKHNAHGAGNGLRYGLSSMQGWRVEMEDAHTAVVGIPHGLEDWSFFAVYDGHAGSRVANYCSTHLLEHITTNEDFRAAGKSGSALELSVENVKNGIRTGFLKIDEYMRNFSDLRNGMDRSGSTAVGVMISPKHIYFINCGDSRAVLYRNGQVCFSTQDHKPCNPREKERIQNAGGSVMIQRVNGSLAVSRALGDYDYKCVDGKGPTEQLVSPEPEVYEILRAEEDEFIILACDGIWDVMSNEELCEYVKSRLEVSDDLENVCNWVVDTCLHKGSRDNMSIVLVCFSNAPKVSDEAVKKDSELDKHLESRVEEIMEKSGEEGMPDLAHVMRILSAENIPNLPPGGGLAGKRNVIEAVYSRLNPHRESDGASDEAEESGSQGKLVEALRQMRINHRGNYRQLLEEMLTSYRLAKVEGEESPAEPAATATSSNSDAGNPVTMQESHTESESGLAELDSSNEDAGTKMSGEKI
UniProt Q9NVS9: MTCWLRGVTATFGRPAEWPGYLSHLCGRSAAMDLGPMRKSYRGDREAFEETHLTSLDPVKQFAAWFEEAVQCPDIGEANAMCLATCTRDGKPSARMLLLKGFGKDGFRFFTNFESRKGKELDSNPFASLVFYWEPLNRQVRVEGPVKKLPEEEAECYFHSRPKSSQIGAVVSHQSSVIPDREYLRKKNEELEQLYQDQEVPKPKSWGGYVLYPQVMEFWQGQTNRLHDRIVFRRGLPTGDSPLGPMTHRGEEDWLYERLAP
UniProt O15031: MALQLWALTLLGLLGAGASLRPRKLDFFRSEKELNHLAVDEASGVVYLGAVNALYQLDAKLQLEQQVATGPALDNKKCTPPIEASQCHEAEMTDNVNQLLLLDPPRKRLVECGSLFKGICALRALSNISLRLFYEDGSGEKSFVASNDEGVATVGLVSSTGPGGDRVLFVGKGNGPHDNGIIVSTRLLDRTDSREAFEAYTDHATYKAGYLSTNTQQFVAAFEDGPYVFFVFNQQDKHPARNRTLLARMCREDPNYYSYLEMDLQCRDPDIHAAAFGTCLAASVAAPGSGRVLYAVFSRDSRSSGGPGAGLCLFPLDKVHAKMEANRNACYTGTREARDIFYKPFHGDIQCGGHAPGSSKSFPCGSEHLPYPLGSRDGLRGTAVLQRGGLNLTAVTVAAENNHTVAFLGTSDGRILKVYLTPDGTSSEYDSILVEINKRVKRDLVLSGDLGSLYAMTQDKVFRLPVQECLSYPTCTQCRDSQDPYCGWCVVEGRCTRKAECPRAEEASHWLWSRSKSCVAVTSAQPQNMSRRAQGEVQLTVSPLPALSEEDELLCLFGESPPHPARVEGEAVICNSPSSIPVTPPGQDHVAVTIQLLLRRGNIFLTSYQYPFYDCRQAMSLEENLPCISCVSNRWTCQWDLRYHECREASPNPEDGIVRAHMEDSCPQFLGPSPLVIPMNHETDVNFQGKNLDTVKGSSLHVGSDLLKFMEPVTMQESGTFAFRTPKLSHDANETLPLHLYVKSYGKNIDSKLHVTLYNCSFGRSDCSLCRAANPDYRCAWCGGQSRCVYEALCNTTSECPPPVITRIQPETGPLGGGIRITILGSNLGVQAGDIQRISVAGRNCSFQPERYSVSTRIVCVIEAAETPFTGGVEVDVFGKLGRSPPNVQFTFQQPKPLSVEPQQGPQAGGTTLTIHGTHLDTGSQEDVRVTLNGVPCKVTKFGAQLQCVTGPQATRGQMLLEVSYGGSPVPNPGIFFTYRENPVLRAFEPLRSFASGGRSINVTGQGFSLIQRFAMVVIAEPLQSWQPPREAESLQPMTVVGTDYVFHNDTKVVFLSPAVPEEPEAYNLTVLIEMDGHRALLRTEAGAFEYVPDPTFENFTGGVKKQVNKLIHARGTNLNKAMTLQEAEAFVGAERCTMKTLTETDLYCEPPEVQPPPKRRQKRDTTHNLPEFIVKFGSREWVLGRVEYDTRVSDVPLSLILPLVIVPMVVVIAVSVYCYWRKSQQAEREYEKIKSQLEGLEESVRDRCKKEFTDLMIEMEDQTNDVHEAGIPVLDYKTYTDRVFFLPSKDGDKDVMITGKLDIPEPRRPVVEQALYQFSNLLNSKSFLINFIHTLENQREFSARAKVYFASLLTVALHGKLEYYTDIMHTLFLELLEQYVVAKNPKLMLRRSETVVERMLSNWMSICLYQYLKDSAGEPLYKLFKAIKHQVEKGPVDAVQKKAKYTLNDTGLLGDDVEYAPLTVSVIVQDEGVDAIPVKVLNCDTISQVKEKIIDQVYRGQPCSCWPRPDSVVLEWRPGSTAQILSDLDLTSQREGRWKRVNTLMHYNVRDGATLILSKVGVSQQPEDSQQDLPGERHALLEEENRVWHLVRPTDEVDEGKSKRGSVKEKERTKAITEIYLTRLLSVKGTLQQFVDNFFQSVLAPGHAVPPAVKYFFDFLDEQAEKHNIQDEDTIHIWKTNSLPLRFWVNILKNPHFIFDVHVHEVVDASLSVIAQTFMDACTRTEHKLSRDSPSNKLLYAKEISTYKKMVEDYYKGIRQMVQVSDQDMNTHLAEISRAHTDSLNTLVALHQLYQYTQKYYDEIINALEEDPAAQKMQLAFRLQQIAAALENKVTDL
UniProt Q9NRX1: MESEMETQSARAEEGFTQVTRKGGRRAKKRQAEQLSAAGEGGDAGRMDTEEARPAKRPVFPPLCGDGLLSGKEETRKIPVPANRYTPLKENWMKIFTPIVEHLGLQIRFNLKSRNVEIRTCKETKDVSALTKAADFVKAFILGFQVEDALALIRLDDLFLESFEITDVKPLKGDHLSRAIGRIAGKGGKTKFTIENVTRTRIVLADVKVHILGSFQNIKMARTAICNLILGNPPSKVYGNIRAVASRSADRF
UniProt O75817: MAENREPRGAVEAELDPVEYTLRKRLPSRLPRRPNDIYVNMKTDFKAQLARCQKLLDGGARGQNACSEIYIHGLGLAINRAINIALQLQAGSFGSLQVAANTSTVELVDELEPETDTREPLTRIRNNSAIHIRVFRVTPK
UniProt Q9NQ55: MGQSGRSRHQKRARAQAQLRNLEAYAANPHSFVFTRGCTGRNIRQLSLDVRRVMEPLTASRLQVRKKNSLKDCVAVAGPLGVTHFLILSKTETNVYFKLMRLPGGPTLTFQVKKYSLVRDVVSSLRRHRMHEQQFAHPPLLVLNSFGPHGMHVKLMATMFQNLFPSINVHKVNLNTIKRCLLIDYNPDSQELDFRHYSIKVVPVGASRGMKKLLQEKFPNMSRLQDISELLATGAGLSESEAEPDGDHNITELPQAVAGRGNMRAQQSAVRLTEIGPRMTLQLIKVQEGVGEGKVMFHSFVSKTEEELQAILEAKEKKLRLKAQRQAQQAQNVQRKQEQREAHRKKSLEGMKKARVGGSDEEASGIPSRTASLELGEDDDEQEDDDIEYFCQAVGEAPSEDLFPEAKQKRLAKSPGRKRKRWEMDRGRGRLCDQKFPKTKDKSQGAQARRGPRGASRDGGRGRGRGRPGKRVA
UniProt Q9Y2S7: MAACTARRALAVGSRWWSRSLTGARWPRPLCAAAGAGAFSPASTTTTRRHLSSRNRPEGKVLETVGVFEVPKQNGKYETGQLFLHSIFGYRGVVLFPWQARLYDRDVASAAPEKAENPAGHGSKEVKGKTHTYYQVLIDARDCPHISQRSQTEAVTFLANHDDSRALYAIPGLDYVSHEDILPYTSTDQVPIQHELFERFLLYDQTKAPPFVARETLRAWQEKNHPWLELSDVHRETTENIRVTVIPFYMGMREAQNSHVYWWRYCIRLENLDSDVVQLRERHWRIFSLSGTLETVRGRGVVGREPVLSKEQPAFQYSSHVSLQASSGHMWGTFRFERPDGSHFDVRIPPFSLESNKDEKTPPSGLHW
UniProt Q96CD2: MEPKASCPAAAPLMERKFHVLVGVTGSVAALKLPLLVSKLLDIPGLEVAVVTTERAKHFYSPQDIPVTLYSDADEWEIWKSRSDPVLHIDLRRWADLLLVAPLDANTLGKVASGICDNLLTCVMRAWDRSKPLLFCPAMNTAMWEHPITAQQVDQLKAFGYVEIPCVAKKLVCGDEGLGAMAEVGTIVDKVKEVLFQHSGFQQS
UniProt Q9H1D9: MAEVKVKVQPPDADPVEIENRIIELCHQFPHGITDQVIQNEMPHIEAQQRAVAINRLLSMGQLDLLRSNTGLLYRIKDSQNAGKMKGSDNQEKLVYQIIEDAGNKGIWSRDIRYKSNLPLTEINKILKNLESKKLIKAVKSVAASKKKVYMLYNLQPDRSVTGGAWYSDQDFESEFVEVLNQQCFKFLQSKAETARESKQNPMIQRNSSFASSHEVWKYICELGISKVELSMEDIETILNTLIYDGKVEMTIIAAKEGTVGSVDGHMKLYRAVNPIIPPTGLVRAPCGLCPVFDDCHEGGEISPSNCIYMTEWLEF
UniProt Q15181: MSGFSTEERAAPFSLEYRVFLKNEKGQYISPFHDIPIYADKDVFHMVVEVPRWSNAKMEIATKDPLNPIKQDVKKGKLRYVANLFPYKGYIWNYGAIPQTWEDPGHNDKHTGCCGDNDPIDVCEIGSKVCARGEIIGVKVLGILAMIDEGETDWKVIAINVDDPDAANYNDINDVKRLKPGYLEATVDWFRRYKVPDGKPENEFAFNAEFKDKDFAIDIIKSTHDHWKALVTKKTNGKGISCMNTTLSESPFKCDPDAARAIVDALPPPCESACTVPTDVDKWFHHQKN
UniProt A5A3E0, whole entry, looked up: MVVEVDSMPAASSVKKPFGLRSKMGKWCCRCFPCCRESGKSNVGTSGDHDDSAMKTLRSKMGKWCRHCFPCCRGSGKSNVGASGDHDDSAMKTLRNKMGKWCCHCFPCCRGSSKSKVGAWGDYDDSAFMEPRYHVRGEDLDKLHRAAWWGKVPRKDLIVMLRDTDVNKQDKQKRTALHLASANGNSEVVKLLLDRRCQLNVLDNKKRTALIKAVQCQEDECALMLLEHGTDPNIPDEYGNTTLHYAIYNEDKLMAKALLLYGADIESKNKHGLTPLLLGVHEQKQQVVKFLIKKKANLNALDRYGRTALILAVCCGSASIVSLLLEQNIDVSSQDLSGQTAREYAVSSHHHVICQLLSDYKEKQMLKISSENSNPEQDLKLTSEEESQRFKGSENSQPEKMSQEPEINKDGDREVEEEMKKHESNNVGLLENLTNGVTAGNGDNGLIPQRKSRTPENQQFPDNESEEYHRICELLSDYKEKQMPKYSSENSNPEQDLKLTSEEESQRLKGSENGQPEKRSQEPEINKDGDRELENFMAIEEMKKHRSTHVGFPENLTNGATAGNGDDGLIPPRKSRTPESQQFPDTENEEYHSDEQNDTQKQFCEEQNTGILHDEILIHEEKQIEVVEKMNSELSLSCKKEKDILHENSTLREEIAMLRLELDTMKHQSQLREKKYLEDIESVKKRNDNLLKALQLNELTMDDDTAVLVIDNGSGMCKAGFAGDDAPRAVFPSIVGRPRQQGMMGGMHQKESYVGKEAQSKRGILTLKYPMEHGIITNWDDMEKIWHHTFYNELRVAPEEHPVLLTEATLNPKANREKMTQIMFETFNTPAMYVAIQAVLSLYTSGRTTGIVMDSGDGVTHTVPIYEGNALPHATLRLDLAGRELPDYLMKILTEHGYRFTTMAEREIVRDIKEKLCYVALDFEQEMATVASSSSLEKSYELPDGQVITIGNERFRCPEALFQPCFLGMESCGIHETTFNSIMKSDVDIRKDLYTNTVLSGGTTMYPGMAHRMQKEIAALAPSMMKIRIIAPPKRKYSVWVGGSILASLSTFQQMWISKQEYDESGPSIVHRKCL
UniProt Q8N490: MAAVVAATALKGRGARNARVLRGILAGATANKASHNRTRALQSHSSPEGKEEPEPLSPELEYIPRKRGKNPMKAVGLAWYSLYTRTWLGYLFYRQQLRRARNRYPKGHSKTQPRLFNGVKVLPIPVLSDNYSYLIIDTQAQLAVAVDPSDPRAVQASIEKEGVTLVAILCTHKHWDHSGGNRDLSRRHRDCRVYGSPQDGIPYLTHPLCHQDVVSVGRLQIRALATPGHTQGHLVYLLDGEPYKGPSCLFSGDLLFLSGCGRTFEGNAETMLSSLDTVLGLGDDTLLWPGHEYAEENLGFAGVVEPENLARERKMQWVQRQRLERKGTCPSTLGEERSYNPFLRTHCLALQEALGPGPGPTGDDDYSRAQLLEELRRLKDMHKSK
UniProt P30405: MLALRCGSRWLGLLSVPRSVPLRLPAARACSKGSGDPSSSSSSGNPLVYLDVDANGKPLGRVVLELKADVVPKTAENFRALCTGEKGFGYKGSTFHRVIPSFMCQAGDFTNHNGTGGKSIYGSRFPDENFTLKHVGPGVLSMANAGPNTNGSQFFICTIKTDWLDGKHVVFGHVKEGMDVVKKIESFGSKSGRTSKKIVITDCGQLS
UniProt Q9UNP9: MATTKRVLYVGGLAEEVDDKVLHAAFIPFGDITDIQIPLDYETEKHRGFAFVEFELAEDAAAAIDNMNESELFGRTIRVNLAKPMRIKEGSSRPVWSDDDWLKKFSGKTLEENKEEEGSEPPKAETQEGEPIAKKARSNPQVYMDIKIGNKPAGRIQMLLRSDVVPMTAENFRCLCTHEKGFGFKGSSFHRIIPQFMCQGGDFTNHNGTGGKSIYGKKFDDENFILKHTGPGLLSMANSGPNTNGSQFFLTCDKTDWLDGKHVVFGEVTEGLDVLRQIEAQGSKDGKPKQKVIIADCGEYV

The targets below were run with CNC(=O)c1ccc(Nc2ncc(C(F)(F)F)c(NCc3nccnc3N(C)S(C)(=O)=O)n2)cc1 [defactinib] (assay: log2 fold change, soluble protein after heating vs DMSO (PISA); higher = thermal stabilisation; K562 cells, 10 uM, 30 min; active = over 0.2 and 3.5 SD of the protein, either way, in both replicates (recomputed)).
Summary of the method: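 Soluble protein was defined as the supernatant after 21,000xg for 90 min. It came from K562 cells at 2×10^6 cells/mL given 10 μM compound for 30 min, heated in aliquots for 3 min across 48°C-58°C, pooled, and extracted in PBS with 0.5% NP-40 at 4°C, and was quantified by TMTpro 16plex LC-MS/MS with equalised channel sums. Thermal stability against control samples, from duplicates, is reported as log2 fold change.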

Target | log2 fold change
POFUT2 (UniProt Q9Y2G5) | inactive: 0.034
PPIA (UniProt P62937) | inactive: -0.046
POLR3C (UniProt Q9BUI4) | inactive: -0.085
POFUT1 (UniProt Q9H488) | inactive: 0.04
PPM1B (UniProt O75688) | inactive: -0.023
PPIP5K2 (UniProt O43314) | inactive: -0.008
PNPO (UniProt Q9NVS9) | inactive: -0.033
POLDIP3 (UniProt Q9BY77) | inactive: 0.07
PPFIA1 (UniProt Q13136) | inactive: -0.003
PMF1 (UniProt Q6P1K2) | inactive: -0.002
POLG2 (UniProt Q9UHN1) | inactive: 0
PLOD3 (UniProt O60568) | inactive: 0.066
PLXNB2 (UniProt O15031) | inactive: -0.093
PNO1 (UniProt Q9NRX1) | inactive: 0.126
PLIN3 (UniProt O60664) | inactive: -0.009
POMGNT1 isoform 2 (UniProt Q8WZA1) | inactive: 0.04
POP7 (UniProt O75817) | inactive: -0.016

Some of the entries above, set out differently:

| Target | log2 fold change |
| --- | --- |
| POMGNT1 isoform 2 (UniProt Q8WZA1) | inactive: 0.04 |
| POP7 (UniProt O75817) | inactive: -0.016 |

Further results

Target | log2 fold change
PPAT (UniProt Q06203) | inactive: -0.013
PPAN isoform 3 (UniProt Q9NQ55) | inactive: 0.584
PPA2 (UniProt Q9H2U2) | inactive: 0.038
POP5 (UniProt Q969H6) | inactive: -0.001
POSTN (UniProt Q15063) | inactive: -0.014
POLDIP2 (UniProt Q9Y2S7) | inactive: -0.048
PPCDC (UniProt Q96CD2) | inactive: -0.077
POLR2H (UniProt P52434) | inactive: 0.029
POGLUT2 (UniProt Q6UW63) | inactive: 0.031
POLR3F (UniProt Q9H1D9) | inactive: -0.093
PPA1 (UniProt Q15181) | inactive: 0.003
POTEF (UniProt A5A3E0) | inactive: -0.015
POU2F1 isoform 6 (UniProt P14859) | inactive: -0.13
PNKD isoform 2 (UniProt Q8N490) | inactive: -0.071
PPIF (UniProt P30405) | inactive: 0.001
PPIE (UniProt Q9UNP9) | inactive: 0.019
